Assay results published in paper PMC8758774.
These are yes or no findings as the source states them, for the method shown. In cells and extracts the contact can be indirect. Some binding calls cover weakened binding; strength is not graded here. For some of these results: Sequences can lack the tags named with a protein.

By UniProt entry, the sequences of proteins in these tests, tags left out.
UniProt P53396: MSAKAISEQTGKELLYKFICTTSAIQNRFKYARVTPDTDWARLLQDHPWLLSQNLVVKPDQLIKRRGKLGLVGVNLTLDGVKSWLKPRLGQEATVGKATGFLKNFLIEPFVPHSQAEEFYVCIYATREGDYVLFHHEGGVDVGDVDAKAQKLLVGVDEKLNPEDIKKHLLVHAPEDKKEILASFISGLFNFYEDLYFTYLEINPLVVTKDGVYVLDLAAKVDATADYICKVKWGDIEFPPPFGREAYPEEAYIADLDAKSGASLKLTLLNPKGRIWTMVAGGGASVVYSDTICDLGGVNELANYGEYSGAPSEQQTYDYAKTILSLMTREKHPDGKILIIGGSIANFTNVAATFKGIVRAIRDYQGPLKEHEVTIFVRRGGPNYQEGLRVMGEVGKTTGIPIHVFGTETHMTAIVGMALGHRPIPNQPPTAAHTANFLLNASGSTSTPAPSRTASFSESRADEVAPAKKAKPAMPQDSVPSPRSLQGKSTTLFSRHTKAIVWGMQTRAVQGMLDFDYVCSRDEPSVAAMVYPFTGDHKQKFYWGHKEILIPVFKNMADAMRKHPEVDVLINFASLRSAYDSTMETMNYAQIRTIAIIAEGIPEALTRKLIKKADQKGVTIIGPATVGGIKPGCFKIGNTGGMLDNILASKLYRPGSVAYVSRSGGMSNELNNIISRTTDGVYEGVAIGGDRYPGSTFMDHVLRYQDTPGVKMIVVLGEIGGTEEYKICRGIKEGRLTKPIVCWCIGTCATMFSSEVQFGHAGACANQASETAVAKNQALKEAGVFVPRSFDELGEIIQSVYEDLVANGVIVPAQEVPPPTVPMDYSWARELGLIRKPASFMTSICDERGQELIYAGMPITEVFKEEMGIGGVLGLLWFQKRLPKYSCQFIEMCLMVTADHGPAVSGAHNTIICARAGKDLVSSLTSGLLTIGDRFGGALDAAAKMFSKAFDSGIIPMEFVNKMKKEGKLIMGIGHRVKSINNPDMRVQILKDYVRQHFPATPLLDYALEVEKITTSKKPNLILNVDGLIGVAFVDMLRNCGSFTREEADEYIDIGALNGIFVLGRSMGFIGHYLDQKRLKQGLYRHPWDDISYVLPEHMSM

Columns and labels:
[1] = target: T1, His-tagged HSPC111 (human) (UniProt Q9Y3C1); assay: co-IP; HEK293T cells co-transfected with His-HSPC111 and Flag-ACLY lentivirus, NP-40 lysis buffer, His antibody or Flag antibody overnight at 4 °C, Anti-His or Anti-Flag magnetic beads, western blot
T1 sequence: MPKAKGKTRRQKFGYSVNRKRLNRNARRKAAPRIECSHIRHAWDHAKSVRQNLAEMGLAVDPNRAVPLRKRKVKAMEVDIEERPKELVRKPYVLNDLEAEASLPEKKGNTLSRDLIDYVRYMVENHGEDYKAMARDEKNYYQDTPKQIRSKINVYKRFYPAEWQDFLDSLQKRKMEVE

[2] = target: T2, HSPC111 (human (endogenous in LX-2)) (UniProt Q9Y3C1); assay: co-IP; endogenous proteins in LX-2 cells, NP-40 lysis buffer, antibodies overnight at 4 °C, protein A/G magnetic beads, western blot; both directions
T2 sequence: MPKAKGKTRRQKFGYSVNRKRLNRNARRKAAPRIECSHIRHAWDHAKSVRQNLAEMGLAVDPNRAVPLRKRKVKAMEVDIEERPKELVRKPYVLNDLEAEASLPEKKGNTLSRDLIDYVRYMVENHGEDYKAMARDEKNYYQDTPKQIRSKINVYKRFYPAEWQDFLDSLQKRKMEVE

[3] = target: T3, GST-HSPC111 fusion protein (human) (UniProt Q9Y3C1); assay: pull-down; GST or GST-HSPC111 from BL21 immobilised on glutathione agarose resin (4 °C, 2 h), incubated with 293T lysate containing Flag-ACLY at 4 °C for 12 h, eluted with glutathione, western blot; only the target purified
T3 sequence: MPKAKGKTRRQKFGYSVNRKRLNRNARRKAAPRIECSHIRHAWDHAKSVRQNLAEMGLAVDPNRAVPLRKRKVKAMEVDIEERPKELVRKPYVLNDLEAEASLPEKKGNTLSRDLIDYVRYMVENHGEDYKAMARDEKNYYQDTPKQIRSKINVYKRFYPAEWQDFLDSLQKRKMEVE

[4] = target: ATP-citrate lyase (ACLY) (human (endogenous in LX-2)) (UniProt P53396); assay: co-IP; endogenous proteins in LX-2 cells, NP-40 lysis buffer, antibodies overnight at 4 °C, protein A/G magnetic beads, western blot; both directions

**Q.** “Flag-tagged ACLY (lentiviral) (from UniProt P53396 1-1101) (enzyme)” was tested. Which binding [1] did it give?
**A.** binds

**Q.** Which binding [2] does the source give for “ATP-citrate lyase (ACLY) (from UniProt P53396 1-1101) (enzyme)” here?
**A.** binds

**Q.** “Flag-ACLY (pCMV-Flag-ACLY) (from UniProt P53396 1-1101) (enzyme)” was tested. Which binding [3] did it give?
**A.** binds

B1: HSPC111 (protein, UniProt Q9Y3C1 1-178)
chain: MPKAKGKTRRQKFGYSVNRKRLNRNARRKAAPRIECSHIRHAWDHAKSVRQNLAEMGLAVDPNRAVPLRKRKVKAMEVDIEERPKELVRKPYVLNDLEAEASLPEKKGNTLSRDLIDYVRYMVENHGEDYKAMARDEKNYYQDTPKQIRSKINVYKRFYPAEWQDFLDSLQKRKMEVE
**Q.** With B1 as the molecule, how does the binding [4] read?
**A.** binds
